The values below come from patent publication US20240324654A1, “AEROSOLIZABLE MATERIAL” (Nicoventures Trading Limited, priority 2019, published 2024).

This data set in a line: Solubility of cannabidiol isolate in glycerol / propylene glycol / water solutions. The class given is physicochemical. To be noted: Isolate 10 mg/mL, Glycerol 36 w/w.

Turning to `C=C(C)[C@@H]1CCC(C)=C[C@H]1c1c(O)cc(CCCCC)cc1O` [Isolate, cannabidiol], the Soluble result is listed as “YES” (PG 52.09 w/w, Water 11 w/w) and “YES” (PG 53.09 w/w, Water 10 w/w).
